Results: article PMC8134429
No constants are given. Whether binding was seen depends on the method and setting. In cells and extracts the contact can be indirect. A yes stands for co-enrichment or nearness to the bait. Other partners may have been found.

Amino acid sequences for entries named in this document (tags omitted). Residues count along the entry.
UniProt P02751, residues 32-2477: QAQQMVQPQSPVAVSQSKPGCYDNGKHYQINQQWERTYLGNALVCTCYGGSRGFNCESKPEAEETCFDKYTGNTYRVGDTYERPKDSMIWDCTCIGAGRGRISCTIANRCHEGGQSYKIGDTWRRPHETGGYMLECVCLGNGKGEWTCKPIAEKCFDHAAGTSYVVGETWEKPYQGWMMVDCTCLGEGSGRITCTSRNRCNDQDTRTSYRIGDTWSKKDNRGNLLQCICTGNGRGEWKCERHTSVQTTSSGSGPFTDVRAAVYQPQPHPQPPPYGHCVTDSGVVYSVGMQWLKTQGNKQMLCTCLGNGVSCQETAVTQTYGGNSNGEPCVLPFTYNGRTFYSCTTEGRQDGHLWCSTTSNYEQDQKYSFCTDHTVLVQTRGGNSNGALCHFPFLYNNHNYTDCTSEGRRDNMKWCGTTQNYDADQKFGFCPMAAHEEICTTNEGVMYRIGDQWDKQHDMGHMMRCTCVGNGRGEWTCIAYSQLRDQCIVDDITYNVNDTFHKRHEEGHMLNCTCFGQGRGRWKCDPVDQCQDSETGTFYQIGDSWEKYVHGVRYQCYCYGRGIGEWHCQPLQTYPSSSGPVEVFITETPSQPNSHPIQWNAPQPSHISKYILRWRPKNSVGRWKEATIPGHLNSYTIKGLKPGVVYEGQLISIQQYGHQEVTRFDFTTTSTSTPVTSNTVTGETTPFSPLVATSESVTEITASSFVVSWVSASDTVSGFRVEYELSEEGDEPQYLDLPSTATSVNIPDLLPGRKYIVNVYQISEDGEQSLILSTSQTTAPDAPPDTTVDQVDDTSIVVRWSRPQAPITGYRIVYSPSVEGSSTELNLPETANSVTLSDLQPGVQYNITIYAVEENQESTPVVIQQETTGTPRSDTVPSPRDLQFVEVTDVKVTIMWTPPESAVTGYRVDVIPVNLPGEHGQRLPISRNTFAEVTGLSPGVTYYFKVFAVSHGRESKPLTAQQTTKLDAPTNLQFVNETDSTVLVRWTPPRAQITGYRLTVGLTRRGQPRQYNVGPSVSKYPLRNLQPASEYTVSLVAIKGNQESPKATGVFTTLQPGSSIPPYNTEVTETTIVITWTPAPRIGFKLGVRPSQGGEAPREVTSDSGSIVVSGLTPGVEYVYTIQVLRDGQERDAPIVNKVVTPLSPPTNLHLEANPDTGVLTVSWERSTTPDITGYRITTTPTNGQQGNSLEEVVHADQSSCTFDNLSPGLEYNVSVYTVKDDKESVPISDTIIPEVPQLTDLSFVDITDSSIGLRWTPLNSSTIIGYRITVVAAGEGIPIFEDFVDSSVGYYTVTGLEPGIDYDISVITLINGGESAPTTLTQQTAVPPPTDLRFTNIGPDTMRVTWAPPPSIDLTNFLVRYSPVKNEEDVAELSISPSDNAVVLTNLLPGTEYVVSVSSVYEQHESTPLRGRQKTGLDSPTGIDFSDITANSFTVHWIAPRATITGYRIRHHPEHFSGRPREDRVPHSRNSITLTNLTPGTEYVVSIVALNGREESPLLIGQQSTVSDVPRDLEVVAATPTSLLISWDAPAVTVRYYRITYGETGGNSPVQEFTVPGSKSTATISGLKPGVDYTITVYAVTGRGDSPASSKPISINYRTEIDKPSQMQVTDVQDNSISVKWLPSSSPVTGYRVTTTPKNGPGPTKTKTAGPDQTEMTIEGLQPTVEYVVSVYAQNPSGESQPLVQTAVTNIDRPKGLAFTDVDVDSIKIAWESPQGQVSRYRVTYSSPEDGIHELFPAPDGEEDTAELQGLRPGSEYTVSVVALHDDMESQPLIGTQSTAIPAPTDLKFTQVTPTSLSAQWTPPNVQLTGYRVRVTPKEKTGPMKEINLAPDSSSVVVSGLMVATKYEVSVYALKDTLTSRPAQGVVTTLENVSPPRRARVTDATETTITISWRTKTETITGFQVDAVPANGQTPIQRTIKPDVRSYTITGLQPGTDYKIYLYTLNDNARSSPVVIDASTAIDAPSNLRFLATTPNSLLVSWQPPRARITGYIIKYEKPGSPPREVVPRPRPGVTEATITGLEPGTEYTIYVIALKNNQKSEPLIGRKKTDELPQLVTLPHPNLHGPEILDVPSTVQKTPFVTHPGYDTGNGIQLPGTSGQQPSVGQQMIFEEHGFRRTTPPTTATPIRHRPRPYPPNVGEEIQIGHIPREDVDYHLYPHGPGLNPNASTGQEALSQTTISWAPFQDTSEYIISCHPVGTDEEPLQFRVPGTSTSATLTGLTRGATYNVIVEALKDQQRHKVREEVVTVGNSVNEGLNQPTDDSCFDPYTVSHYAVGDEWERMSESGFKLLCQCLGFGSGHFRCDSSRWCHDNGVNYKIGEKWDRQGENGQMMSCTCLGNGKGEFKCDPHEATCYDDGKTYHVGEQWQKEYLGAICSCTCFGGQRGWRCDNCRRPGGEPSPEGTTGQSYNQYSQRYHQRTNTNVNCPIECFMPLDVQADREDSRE
UniProt P13645: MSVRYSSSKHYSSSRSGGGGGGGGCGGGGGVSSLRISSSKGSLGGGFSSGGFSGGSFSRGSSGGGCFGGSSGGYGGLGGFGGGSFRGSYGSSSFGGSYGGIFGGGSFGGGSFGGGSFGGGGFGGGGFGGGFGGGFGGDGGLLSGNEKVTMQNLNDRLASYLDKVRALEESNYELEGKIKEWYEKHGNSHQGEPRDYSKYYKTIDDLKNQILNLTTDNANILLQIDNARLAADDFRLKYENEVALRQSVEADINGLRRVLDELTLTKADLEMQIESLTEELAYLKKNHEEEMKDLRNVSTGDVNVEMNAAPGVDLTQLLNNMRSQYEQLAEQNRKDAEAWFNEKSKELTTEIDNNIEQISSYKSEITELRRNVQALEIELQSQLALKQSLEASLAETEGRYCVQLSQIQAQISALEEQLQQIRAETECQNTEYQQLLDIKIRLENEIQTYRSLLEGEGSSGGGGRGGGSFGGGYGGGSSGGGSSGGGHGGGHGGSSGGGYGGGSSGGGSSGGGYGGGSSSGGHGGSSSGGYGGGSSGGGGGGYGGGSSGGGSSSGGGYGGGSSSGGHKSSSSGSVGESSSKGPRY
UniProt P04264: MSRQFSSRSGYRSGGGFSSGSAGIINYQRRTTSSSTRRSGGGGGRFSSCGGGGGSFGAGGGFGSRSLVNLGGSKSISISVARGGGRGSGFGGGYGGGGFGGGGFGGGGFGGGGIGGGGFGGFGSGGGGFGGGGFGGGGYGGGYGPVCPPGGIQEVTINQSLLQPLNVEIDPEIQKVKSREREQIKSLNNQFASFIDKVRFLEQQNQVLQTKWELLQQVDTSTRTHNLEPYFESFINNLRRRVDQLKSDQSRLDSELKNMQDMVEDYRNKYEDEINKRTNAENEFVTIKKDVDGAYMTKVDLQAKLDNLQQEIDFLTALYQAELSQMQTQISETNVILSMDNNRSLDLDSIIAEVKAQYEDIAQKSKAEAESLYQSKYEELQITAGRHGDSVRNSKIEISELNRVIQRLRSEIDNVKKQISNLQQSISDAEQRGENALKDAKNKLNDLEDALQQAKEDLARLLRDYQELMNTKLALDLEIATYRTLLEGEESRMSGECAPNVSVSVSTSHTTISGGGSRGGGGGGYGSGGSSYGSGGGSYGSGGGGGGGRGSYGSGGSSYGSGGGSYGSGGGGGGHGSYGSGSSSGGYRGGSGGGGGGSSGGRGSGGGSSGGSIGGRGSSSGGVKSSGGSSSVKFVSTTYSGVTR
UniProt P04259: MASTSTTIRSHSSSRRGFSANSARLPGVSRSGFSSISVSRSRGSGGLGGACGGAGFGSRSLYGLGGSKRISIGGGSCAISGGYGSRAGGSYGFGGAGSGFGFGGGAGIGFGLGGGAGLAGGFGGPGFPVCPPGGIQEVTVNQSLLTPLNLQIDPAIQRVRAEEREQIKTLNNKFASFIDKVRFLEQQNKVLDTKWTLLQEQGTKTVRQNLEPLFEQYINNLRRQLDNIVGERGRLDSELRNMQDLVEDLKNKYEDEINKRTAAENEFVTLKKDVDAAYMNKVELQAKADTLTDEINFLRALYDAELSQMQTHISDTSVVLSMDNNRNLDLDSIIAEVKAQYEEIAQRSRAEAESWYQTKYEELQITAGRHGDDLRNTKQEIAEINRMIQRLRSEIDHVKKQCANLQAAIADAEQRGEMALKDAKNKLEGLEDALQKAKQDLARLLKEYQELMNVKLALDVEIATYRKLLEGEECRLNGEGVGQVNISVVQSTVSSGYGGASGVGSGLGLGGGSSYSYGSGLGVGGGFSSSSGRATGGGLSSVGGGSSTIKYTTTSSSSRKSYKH
UniProt P35579: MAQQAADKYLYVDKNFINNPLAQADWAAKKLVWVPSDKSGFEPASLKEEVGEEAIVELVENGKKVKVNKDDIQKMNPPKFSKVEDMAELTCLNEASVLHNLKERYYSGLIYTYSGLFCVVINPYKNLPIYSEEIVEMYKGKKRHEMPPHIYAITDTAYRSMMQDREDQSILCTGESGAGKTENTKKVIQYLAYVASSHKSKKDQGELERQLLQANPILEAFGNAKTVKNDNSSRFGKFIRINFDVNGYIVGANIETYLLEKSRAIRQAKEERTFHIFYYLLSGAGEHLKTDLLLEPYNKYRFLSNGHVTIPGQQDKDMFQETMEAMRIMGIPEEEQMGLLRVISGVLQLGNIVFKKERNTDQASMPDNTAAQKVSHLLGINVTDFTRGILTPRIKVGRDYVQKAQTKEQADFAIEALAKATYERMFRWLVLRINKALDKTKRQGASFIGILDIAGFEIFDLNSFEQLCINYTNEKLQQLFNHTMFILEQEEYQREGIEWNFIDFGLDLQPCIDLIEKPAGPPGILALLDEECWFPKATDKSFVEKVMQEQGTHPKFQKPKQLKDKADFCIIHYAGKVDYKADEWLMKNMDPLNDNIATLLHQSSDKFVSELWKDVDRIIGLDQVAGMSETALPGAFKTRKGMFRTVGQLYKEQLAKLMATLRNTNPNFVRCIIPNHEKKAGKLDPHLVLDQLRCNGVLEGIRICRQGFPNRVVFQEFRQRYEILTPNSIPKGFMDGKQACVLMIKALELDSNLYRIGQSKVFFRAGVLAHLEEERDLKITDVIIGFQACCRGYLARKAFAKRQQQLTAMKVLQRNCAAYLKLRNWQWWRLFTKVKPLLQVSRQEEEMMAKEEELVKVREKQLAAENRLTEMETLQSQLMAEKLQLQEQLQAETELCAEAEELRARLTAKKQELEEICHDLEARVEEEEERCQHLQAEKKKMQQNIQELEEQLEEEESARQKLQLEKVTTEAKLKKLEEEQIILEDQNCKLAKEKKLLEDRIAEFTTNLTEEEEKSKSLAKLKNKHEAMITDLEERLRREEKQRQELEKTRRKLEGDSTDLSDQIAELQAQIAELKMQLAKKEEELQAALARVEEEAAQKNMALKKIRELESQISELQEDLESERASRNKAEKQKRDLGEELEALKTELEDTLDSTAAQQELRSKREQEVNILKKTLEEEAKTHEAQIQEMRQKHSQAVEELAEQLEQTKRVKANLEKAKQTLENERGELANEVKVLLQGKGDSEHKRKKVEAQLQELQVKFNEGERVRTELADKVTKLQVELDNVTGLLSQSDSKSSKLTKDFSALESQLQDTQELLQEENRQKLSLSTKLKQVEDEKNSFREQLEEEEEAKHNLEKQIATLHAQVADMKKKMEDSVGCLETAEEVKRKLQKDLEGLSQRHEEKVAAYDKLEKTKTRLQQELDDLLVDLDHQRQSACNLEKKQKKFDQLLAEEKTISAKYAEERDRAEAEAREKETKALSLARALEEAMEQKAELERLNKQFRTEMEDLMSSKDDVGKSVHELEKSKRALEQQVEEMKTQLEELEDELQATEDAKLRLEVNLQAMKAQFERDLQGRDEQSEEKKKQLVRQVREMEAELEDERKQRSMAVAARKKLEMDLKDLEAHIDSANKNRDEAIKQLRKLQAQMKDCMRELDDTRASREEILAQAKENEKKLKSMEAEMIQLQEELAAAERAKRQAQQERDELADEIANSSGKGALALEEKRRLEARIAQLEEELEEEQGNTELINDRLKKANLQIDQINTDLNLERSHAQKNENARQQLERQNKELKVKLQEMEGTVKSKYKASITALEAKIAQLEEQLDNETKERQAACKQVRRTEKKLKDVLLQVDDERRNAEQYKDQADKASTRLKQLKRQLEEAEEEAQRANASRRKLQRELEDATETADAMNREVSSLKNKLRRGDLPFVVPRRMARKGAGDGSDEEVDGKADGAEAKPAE

What follows are molecules tested against FKRP (bait of the FKRP pull down of Table 2) (assay: affinity purification with mass spectrometry; immunoprecipitation of FKRP and SWATH mass spectrometry; sample not stated (hits are mouse entries)).

binding | Molecule
binds | Myosin light polypeptide 6 (mouse) (protein, UniProt Q60605 1-151) MCDFTEDQTAEFKEAFQLFDRTGDGKILYSQCGDVMRALGQNPTNAEVLKVLGNPKSDEMNVKVLDFEHFLPMLQTVAKNKDQGTYEDYVEGLRVFDKEGNGTVMGAEIRHVLVTLGEKMTEEEVEMLVAGHEDSNGCINYEAFVRHILSG

Each molecule was assayed against Fibronectin (endogenous, human myotubes) (human (endogenous in human myotubes)) (UniProt P02751) (assay: affinity purification with mass spectrometry; fibronectin precipitated with 10 ug human fibronectin antibody (Sigma) on IgG beads from human myotube lysates (healthy control, LGMD2I, CMD) in immunoprecipitation buffer (Pierce); on-bead trypsin digestion; DDA and SWATH; collagen peptide normalised to fibronectin peptide).

binding | Molecule
binds | Filamin-A (human) (from UniProt P21333 1-2647)
binds | Keratin, type I cytoskeletal 10 (human) (from UniProt P13645 1-584)
binds | Keratin, type II cytoskeletal 1 (human) (from UniProt P04264 1-644)
binds | Keratin, type II cytoskeletal 6B (human) (from UniProt P04259 1-564)
binds | Myosin-9 (human) (from UniProt P35579 1-1960)
binds | Myosin-10 (human) (from UniProt P35580 1-1976)
binds | Dermcidin (human) (protein, UniProt P81605 20-110) YDPEAASAPGSGNPCHEASAAQKENAGEDPGLARQAPKPRKQRSSLLEKGLDGAKKAVGGLGKLGKDAVEDLESVGKGAVHDVKDVLDSVL
binds | Keratin, type I cytoskeletal 9 (human) (protein, UniProt P35527 1-623) MSCRQFSSSYLSRSGGGGGGGLGSGGSIRSSYSRFSSSGGGGGGGRFSSSSGYGGGSSRVCGRGGGGSFGYSYGGGSGGGFSASSLGGGFGGGSRGFGGASGGGYSSSGGFGGGFGGGSGGGFGGGYGSGFGGFGGFGGGAGGGDGGILTANEKSTMQELNSRLASYLDKVQALEEANNDLENKIQDWYDKKGPAAIQKNYSPYYNTIDDLKDQIVDLTVGNNKTLLDIDNTRMTLDDFRIKFEMEQNLRQGVDADINGLRQVLDNLTMEKSDLEMQYETLQEELMALKKNHKEEMSQLTGQNSGDVNVEINVAPGKDLTKTLNDMRQEYEQLIAKNRKDIENQYETQITQIEHEVSSSGQEVQSSAKEVTQLRHGVQELEIELQSQLSKKAALEKSLEDTKNRYCGQLQMIQEQISNLEAQITDVRQEIECQNQEYSLLLSIKMRLEKEIETYHNLLEGGQEDFESSGAGKIGLGGRGGSGGSYGRGSRGGSGGSYGGGGSGGGYGGGSGSRGGSGGSYGGGSGSGGGSGGGYGGGSGGGHSGGSGGGHSGGSGGNYGGGSGSGGGSGGGYGGGSGSRGGSGGSHGGGSGFGGESGGSYGGGEEASGSGGGYGGGSGKSSHS
